Data: PubChem BioAssay AID248 (DTP/NCI, 2004)
The list does not hold the whole screen: it gathers tests that were run many times, whatever their T/C, doses with no T/C, and many T/C values between a quarter and a half above the control. Other doses and runs of a compound stand elsewhere. T/C gives the treated animals as a percentage of the vehicle group. Some entries give survivors of the animals treated and no T/C: the source files T/C as zero there, which appears to mark a toxic dose or a test without result, not a measured value. Some survivor counts are full or nearly so, which does not show that the dose was tolerated: the source hardly ever lists a survival T/C far under the control, and the zero likely stands for such cases as well. Survivors were counted at the toxicity check, usually on the fifth day, unless a day is given; later deaths do not show. Schedules are NCI's codes, taken here to give the interval after Q, in days (D) or hours (H), and the number of doses after X. Some schedules carry Z or #; the key to these is not given. Some doses were run more than once; their values stand side by side, smallest first. Where survival is the endpoint, this PubChem deposit counts one and a half times the control or more as active, and values a quarter to a half above the control carry no call in these data; other NCI protocols may use other cut-offs. Signs of the kind (2×) say how often a value occurs here. Some T/C values are followed by the survivors on the day toxicity was checked, most often the fifth; where none is given, no animal had died by that day.

Test system: L1210 leukemia ip in BDF1 mice, survival T/C
Test: NCI In Vivo Anticancer Drug Screen. Data for tumor model L1210 Leukemia (intraperitoneal) in B6D2F1 (BDF1) mice
Details: T/C endpoint: mean survival time, higher T/C = longer survival
[1] = dose: 6.25 mg/kg/injection, schedule: Q03HX024 (ip), vehicle: saline
[2] = dose: 53.0 mg/kg/injection, schedule: Q01DX Z (ip), vehicle: saline
[3] = dose: 80.0 mg/kg/injection, schedule: Q01DX Z (ip), vehicle: saline
[4] = dose: 93.0 mg/kg/injection, schedule: Q01DX Z (oral), vehicle: saline
[5] = dose: 100.0 mg/kg/injection, schedule: Q04DX003 (ip), vehicle: saline

For `CN(C)c1ccc(Nc2c3ccccc3nc3ccccc23)cc1`, the survivor count (dose: 3.13 mg/kg/injection, schedule: Q03HX024 (ip), vehicle: saline) was 9 of 10, the T/C [1] was 131 % of control and the survivor count [1] was 0 of 10. The T/C (dose: 6.25 mg/kg/injection, schedule: Q03HX040 (ip), vehicle: saline) was 125 % of control, the T/C (dose: 12.5 mg/kg/injection, schedule: Q03HX008 (ip), vehicle: saline, evaluated on day 35) was 127 % of control and the T/C (dose: 12.5 mg/kg/injection, schedule: Q03HX008 (ip), vehicle: saline, run until all animals had died) was 126 % of control. For the same molecule, the T/C (dose: 12.5 mg/kg/injection, schedule: Q06HX020 (ip), vehicle: saline) was 140 % of control, the T/C (dose: 15.0 mg/kg/injection, schedule: Q01DX Z (ip), vehicle: saline) was 130 % of control and the T/C (dose: 20.0 mg/kg/injection, schedule: Q01DX005 (ip), vehicle: saline) was 130 and 140 % of control. For the same molecule, the T/C (dose: 20.0 mg/kg/injection, schedule: Q01DX009 (ip), vehicle: saline) was 140 % of control, the T/C (dose: 22.5 mg/kg/injection, schedule: Q01DX009 (ip), vehicle: saline) was 128 % of control and the T/C (dose: 25.0 mg/kg/injection, schedule: Q01DX009 (ip), vehicle: saline) was 130 % of control. For the same molecule, the survivor count (dose: 25.0 mg/kg/injection, schedule: Q03HX024 (ip), vehicle: saline) was 10 of 10, the survivor count (dose: 25.0 mg/kg/injection, schedule: Q03HX040 (ip), vehicle: saline) was 9 of 10 and the T/C (dose: 25.0 mg/kg/injection, schedule: Q06HX004 (ip), vehicle: saline) was 146 % of control. For the same molecule, the survivor count (dose: 25.0 mg/kg/injection, schedule: Q06HX020 (ip), vehicle: saline) was 10 of 10, the T/C (dose: 25.0 mg/kg/injection, schedule: Q#A X Z (oral), vehicle: saline) was 131 % of control and the T/C (dose: 26.5 mg/kg/injection, schedule: Q#A X Z (ip), vehicle: saline) was 133 % of control. For the same molecule, the T/C (dose: 30.0 mg/kg/injection, schedule: Q01DX Z (ip), vehicle: saline) was 136 % of control, the T/C (dose: 30.0 mg/kg/injection, schedule: Q01DX Z (oral), vehicle: olive oil, sesame oil, peanut oil) was 133 % of control and the survivor count (dose: 35.0 mg/kg/injection, schedule: Q01DX007 (iv), vehicle: saline) was 0 of 6. For the same molecule, the T/C (dose: 35.0 mg/kg/injection, schedule: Q01DX Z (sc), vehicle: saline) was 134 % of control, the T/C (dose: 36.0 mg/kg/injection, schedule: Q01DX Z (ip), vehicle: saline) was 127 % of control and the survivor count (dose: 40.0 mg/kg/injection, schedule: Q01DX005 (ip), vehicle: saline) was 9 of 10. For the same molecule, the survivor count (dose: 40.0 mg/kg/injection, schedule: Q01DX009 (ip), vehicle: saline) was 10 of 10, the T/C (dose: 40.0 mg/kg/injection, schedule: Q#A X Z (ip), vehicle: saline) was 133 % of control and the T/C (dose: 45.0 mg/kg/injection, schedule: Q01DX009 (ip), vehicle: saline) was 137 and 145 % of control. The T/C (dose: 50.0 mg/kg/injection, schedule: Q01DX005 (ip), vehicle: Klucel (hydroxypropylcellulose) (HPC)) was 128 % of control, the T/C (dose: 50.0 mg/kg/injection, schedule: Q01DX005 (ip), vehicle: other) was 138 % of control and the T/C (dose: 50.0 mg/kg/injection, schedule: Q01DX009 (ip), vehicle: saline) was 127 and 135 % of control. The T/C (dose: 50.0 mg/kg/injection, schedule: Q01DX Z (im), vehicle: saline) was 131 % of control, the survivor count (dose: 50.0 mg/kg/injection, schedule: Q03HX008 (ip), vehicle: saline) was 0 of 10 and 2 of 10 and the survivor count (dose: 50.0 mg/kg/injection, schedule: Q03HX016 (ip), vehicle: saline) was 0 of 10. For the same molecule, the survivor count (dose: 50.0 mg/kg/injection, schedule: Q03HX024 (ip), vehicle: saline) was 4 of 10, the T/C (dose: 50.0 mg/kg/injection, schedule: Q04DX003 (ip), vehicle: saline, evaluated on day 30) was 111 and 118 % of control and the T/C (dose: 50.0 mg/kg/injection, schedule: Q04DX003 (ip), vehicle: saline, run until all animals had died) was 149 and 169 % of control. The T/C (dose: 50.0 mg/kg/injection, schedule: Q06HX012 (ip), vehicle: saline) was 130 % of control, the survivor count (dose: 50.0 mg/kg/injection, schedule: Q06HX020 (ip), vehicle: saline) was 0 of 10 and the T/C (dose: 50.0 mg/kg/injection, schedule: Q#A X Z (oral), vehicle: saline) was 132 % of control. The survivor count (dose: 53.0 mg/kg/injection, schedule: Q01DX007 (iv), vehicle: saline) was 0 of 6, the T/C [2] was 100, 116, 132, 173 % of control and the survivor count [2] was 2 of 6. For the same molecule, the T/C (dose: 53.3 mg/kg/injection, schedule: Q01DX Z (ip), vehicle: carboxymethylcellulose (CMC)) was 134 % of control, the survivor count (dose: 53.3 mg/kg/injection, schedule: Q01DX Z (ip), vehicle: methylcellulose (MC)) was 5 of 6 and the T/C (dose: 60.0 mg/kg/injection, schedule: Q01DX Z (ip), vehicle: saline) was 147 % of control. The T/C (dose: 60.0 mg/kg/injection, schedule: Q01DX Z (oral), vehicle: saline) was 125 % of control, the T/C (dose: 60.0 mg/kg/injection, schedule: Q#A X Z (ip), vehicle: saline) was 137 and 144 % of control and the T/C (dose: 62.0 mg/kg/injection, schedule: Q01DX Z (oral), vehicle: saline) was 128 % of control (2×). The T/C (dose: 75.0 mg/kg/injection, schedule: Q03DX006 (oral), vehicle: saline) was 125 % of control (2×), the survivor count (dose: 80.0 mg/kg/injection, schedule: Q01DX005 (ip), vehicle: saline) was 4 of 10 and the survivor count (dose: 80.0 mg/kg/injection, schedule: Q01DX007 (iv), vehicle: saline) was 0 of 6. For the same molecule, the survivor count (dose: 80.0 mg/kg/injection, schedule: Q01DX009 (ip), vehicle: saline) was 1 of 10, the survivor count (dose: 80.0 mg/kg/injection, schedule: Q01DX009 (oral), vehicle: saline) was 10 of 10 and the T/C (dose: 80.0 mg/kg/injection, schedule: Q01DX Z (ip), vehicle: carboxymethylcellulose (CMC)) was 134 % of control. For the same molecule, the T/C [3] was 111, 128, 135, 194 % of control, the survivor count [3] was 1 of 6 and 5 of 6 and the survivor count (dose: 90.0 mg/kg/injection, schedule: Q01DX009 (ip), vehicle: saline) was 5 of 6. The T/C (dose: 90.0 mg/kg/injection, schedule: Q#A X Z (ip), vehicle: saline) was 135 % of control, the T/C [4] was 148 % of control and the survivor count [4] was 6 of 6. The T/C (dose: 100.0 mg/kg/injection, schedule: Q01DX001 (ip), vehicle: saline) was 139 % of control [9 of 10 alive], the T/C (dose: 100.0 mg/kg/injection, schedule: Q01DX005 (ip), vehicle: Klucel (hydroxypropylcellulose) (HPC)) was 138 % of control and the T/C (dose: 100.0 mg/kg/injection, schedule: Q01DX005 (ip), vehicle: other) was 143 % of control. The survivor count (dose: 100.0 mg/kg/injection, schedule: Q01DX009 (ip), vehicle: saline) was 5 of 6, the T/C (dose: 100.0 mg/kg/injection, schedule: Q01DX Z (im), vehicle: saline) was 137 and 143 % of control and the T/C (dose: 100.0 mg/kg/injection, schedule: Q04DX003 (ip), vehicle: Klucel (hydroxypropylcellulose) (HPC)) was 127 % of control. For the same molecule, the T/C [5] was 128 [5 of 6 alive] and 145 % of control, the survivor count [5] was 4 of 10 and the survivor count (dose: 100.0 mg/kg/injection, schedule: Q06HX004 (ip), vehicle: saline) was 0 of 10. The T/C (dose: 100.0 mg/kg/injection, schedule: Q#A X Z (oral), vehicle: saline) was 125 and 141 % of control and the survivor count (dose: 120.0 mg/kg/injection, schedule: Q01DX007 (iv), vehicle: saline) was 0 of 6.
